These are yes or no findings as the source states them, for the method shown. In cells and extracts the contact can be indirect. Some entries that bind do so weakly or less than the wild type.
Molecular target: Peptidyl-prolyl cis/trans isomerase (PPIase) NIMA-interacting 1 (Pin1) (human (endogenous in MRC-5)) (UniProt Q13526)
Assay: co-IP; lysates of MRC-5 cells, mock-transfected or transfected with the LMP1 construct (harvested 3 days post-transfection); immunoprecipitated with Pin1 antibodies, immunoblotted with β-catenin antibodies; species- and isotype-matched control IgG in parallel

Sequences of proteins named here, by UniProt entry; tags and fusion partners are left off.
UniProt Q13526: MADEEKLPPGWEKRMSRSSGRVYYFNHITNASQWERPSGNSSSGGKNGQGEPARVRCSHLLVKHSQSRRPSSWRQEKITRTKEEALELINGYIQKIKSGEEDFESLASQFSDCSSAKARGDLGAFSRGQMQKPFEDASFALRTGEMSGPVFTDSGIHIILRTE
UniProt P35222: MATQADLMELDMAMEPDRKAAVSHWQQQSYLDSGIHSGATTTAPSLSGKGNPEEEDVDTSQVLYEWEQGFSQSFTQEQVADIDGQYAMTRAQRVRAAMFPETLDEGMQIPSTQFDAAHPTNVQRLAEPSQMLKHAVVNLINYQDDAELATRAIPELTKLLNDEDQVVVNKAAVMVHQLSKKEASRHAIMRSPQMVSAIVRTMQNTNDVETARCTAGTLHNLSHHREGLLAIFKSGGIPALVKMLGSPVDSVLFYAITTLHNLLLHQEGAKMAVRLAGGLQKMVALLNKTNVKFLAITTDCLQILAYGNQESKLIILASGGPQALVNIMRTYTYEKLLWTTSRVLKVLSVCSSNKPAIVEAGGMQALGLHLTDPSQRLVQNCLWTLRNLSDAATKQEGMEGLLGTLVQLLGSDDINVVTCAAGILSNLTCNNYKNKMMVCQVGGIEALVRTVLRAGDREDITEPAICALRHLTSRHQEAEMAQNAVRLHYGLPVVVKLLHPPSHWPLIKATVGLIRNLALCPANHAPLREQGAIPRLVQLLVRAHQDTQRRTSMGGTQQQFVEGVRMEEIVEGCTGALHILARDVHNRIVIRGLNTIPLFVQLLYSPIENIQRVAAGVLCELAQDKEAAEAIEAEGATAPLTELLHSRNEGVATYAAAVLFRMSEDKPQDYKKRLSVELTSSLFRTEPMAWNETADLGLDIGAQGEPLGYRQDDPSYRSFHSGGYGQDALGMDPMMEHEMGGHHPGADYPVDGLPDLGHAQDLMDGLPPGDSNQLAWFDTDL

binding: binds
Substance: β-catenin (from UniProt P35222 1-781)
